These are yes or no findings as the source states them, for the method shown. In cells and extracts the contact can be indirect. Some results given as binding are weak or reduced against the parent protein; the word gives no strength.
Legend:
AXL = AXL (UniProt P30530); experiment: co-immunoprecipitation with anti-RAD18 or anti-AXL antibody from PC9 and AXL-overexpressing cell extracts, then immunoblot (FIG. 8F)
RAD18 [1] = molecular target: RAD18 (UniProt Q9NS91); experiment: conclusion drawn from co-immunoprecipitation and proximity ligation assay
RAD18 [2] = molecular target: RAD18 (UniProt Q9NS91); experiment: co-immunoprecipitation from PC9 and AXL-overexpressing PC9 cell extracts; proximity ligation assay in PC9 cells

The chains behind the UniProt entries cited, without tags or fusion partners. Residues count along the entry.
UniProt P30530, residues 26-894: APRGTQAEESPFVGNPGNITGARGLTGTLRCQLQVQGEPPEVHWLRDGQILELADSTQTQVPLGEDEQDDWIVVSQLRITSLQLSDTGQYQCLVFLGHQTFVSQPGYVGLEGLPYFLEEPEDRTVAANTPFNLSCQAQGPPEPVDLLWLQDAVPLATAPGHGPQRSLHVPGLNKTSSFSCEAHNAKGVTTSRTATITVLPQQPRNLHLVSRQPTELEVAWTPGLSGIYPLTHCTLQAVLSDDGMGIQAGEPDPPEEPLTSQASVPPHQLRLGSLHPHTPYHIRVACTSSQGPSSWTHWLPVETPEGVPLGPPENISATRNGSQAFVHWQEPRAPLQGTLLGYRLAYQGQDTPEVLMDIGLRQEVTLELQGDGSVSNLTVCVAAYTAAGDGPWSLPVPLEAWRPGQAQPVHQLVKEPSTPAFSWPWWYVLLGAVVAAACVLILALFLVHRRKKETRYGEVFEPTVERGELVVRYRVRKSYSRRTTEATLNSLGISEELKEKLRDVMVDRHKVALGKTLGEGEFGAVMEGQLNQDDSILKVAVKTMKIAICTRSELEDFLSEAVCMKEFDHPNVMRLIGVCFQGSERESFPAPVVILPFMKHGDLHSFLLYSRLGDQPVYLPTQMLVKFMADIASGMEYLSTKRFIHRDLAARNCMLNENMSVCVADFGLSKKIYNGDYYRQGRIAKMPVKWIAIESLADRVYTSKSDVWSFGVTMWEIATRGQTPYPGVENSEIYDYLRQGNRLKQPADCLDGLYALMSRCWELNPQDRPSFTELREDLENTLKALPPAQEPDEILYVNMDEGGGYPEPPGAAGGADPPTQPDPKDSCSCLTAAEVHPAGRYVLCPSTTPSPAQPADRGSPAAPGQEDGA
UniProt Q9NS91: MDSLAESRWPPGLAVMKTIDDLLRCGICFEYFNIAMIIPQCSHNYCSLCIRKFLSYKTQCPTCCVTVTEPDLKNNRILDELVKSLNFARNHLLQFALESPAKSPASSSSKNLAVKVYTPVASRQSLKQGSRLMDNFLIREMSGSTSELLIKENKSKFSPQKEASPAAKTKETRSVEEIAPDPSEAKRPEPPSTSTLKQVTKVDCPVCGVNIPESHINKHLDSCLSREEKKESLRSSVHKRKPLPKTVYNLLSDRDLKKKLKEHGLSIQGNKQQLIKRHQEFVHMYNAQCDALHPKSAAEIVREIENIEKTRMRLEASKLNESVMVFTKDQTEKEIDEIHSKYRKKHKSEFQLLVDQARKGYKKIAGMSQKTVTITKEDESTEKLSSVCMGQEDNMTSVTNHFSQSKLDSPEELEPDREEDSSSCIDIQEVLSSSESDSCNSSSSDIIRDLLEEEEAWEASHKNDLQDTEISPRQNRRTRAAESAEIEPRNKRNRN

| Substance | binding (AXL) | binding (RAD18 [1]) | binding (RAD18 [2]) |
| --- | --- | --- | --- |
| RAD18 (from UniProt Q9NS91 1-495) (enzyme) | binds | – | – |
| AXL (from UniProt P30530 26-894) (receptor) | – | binds | binds |
